Data as given in PMC4982639, “Structural Basis of Microtubule Destabilization by Potent Auristatin Anti-Mitotics” (PLoS ONE, 2016).

Tests used:
β1-tubulin = assay: Crystal structure of T2R-TTL complex, buried surface with β1-tubulin; parameters: species or system bovine; conditions: inter-dimer interface
α2-tubulin = assay: Crystal structure of T2R-TTL complex, buried surface with α2-tubulin; parameters: species or system bovine; conditions: inter-dimer interface

Compound	buried surface area with β1-tubulin subunit (β1-tubulin) [Å^2]	buried surface area with α2-tubulin subunit (α2-tubulin) [Å^2]
monomethyl auristatin E [MMAE]	457	273
CC[C@]1(O)C[C@@H]2CN(CCc3c([nH]c4ccccc34)[C@@](C(=O)OC)(c3cc4c(cc3OC)N(C)[C@H]3[C@@](O)(C(=O)OC)[C@H](OC(C)=O)[C@]5(CC)C=CCN6CC[C@]43[C@@H]65)C2)C1 [vinblastine]	326	359
